Structures are written as SMILES. This is one part of the list. Part of the spread comes from offsets between plates or batches.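 Hits were defined as a z-score below −3.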

In this test the target is T1, YTHDF1 YTH domain (aa 365-554) (UniProt Q9BYJ9).
T1 sequence (whole entry): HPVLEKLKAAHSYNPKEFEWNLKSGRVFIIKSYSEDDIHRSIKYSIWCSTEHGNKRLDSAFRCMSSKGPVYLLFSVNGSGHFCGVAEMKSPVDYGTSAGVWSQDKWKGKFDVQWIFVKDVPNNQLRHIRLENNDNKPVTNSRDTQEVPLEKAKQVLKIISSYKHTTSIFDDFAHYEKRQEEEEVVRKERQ
Briefly: tryptophan fluorescence intensity z-score (mean); higher = higher fluorescence, less quenching (negative = binding / quenching). The settings on record: 10 µM.
For the compound `NC(=O)OCC(COC(N)=O)c1ccccc1` (plate: M 11-12), the “tryptophan fluorescence intensity z-score” value was inactive: 0.0775.

Turning to `Cc1ccnc(NS(=O)(=O)c2ccc(N)cc2)n1` (plate: M 5-6), the “tryptophan fluorescence intensity z-score” value was inactive: -0.126.

On to `O=c1c(O)c(-c2ccccc2)oc2cccc(O)c12` (plate: M 19-20), for which the “tryptophan fluorescence intensity z-score” value was inactive: 0.108.

Take `CCCCC/C=C/CCC(=O)N[C@H]1[C@H](Oc2c3cc4cc2Oc2ccc(cc2Cl)[C@@H](O[C@@H]2O[C@H](CO)[C@@H](O)[C@H](O)[C@H]2NC(C)=O)[C@@H]2NC(=O)[C@H](NC(=O)[C@@H]4NC(=O)[C@H]4NC(=O)C(Cc5ccc(c(Cl)c5)O3)NC(=O)[C@H](N)c3ccc(O)c(c3)Oc3cc(O)cc4c3)c3ccc(O)c(c3)-c3c(OC4O[C@H](CO)[C@@H](O)[C@H](O)[C@@H]4O)cc(O)cc3[C@@H](C(=O)O)NC2=O)O[C@H](CO)[C@@H](O)[C@@H]1O` (some centres undefined) [TEICOPLANIN[A(2-1)shown]] (plate: M 11-12): the “tryptophan fluorescence intensity z-score” value was inactive: -0.669.

On to `CCCCCCCCCCCCCCCC(=O)OC[C@@H](NC(=O)C(Cl)Cl)[C@H](O)c1ccc([N+](=O)[O-])cc1` (plate: M 1-2), for which the “tryptophan fluorescence intensity z-score” value is inactive: 0.531.

With `COc1cc2nc(N(C)CCCNC(=O)C3CCCO3)nc(N)c2cc1OC` (centres undefined) (plate: M 9-10), the “tryptophan fluorescence intensity z-score” value was inactive: -0.854.

Turning to `O=C(O)/C=C/c1ccc(O)c(O)c1` (plate: M 19-20), the “tryptophan fluorescence intensity z-score” value is inactive: -0.815.

For `CC(=O)O[C@]1(C(C)=O)CC[C@H]2[C@@H]3C=C(Cl)C4=CC(=O)[C@@H]5C[C@@H]5[C@]4(C)[C@H]3CC[C@@]21C` (plate: M 1-2), the “tryptophan fluorescence intensity z-score” value was inactive: -0.407.

Regarding `Clc1ccc(CO/N=C(\Cn2ccnc2)c2ccc(Cl)cc2Cl)c(Cl)c1` (plate: M 9-10), the “tryptophan fluorescence intensity z-score” value is inactive: -0.442.

`C#C[C@]1(OC(C)=O)CC[C@H]2[C@@H]3CCC4=CC(=NO)CC[C@@H]4[C@H]3CC[C@@]21CC` (mixture of isomers) (plate: M 11-12): the “tryptophan fluorescence intensity z-score” value is inactive: -0.142.

`COc1ccc2cc([C@H](C)CO)ccc2c1` (plate: M 9-10): the “tryptophan fluorescence intensity z-score” value was inactive: -0.189.

For the compound `O=C(O)COCCN1CCN(C(c2ccccc2)c2ccc(Cl)cc2)CC1` (centres undefined) (plate: M 11-12), the “tryptophan fluorescence intensity z-score” value was inactive: -0.359.

Regarding `N[C@@H]1CONC1=O` (plate: M 1-2), the “tryptophan fluorescence intensity z-score” value was inactive: 0.365.

Take `CC1=C(C(=O)O)N2C(=O)[C@@H](NC(=O)[C@H](N)C3=CCC=CC3)[C@H]2SC1` (plate: M 1-2): the “tryptophan fluorescence intensity z-score” value is inactive: 0.249.

`N[C@@H](CCC(=O)N[C@@H](CS)C(=O)NCC(=O)O)C(=O)O` (plate: M 19-20): the “tryptophan fluorescence intensity z-score” value is inactive: 0.9.

On to `COc1cc(C(=O)NCCCCCC(=O)O)cc(OC)c1OC` (plate: M 11-12), for which the “tryptophan fluorescence intensity z-score” value is inactive: 0.0942.

For `Cc1ncc(CO)c(CO)c1O` (plate: M 11-12), the “tryptophan fluorescence intensity z-score” value is inactive: 0.443.

For the compound `COc1cc2c3cc1Oc1cc(ccc1O)C[C@@H]1c4c(cc(OC)c(O)c4Oc4ccc(cc4)C[C@@H]3N(C)CC2)CC[N+]1(C)C` (plate: M 5-6), the “tryptophan fluorescence intensity z-score” value was inactive: 0.0207.

For the compound `N=C(N)NS(=O)(=O)c1ccc(N)cc1` (plate: M 7-8), the “tryptophan fluorescence intensity z-score” value was inactive: 0.41.

Regarding `CC(=O)Oc1ccccc1C(=O)O` (plate: M 1-2), the “tryptophan fluorescence intensity z-score” value was inactive: -0.289.

For `CC1=C(/C=C/C(C)=C/C=C/C(C)=C/C(=O)O)C(C)(C)CCC1` (plate: M 7-8), the “tryptophan fluorescence intensity z-score” value is inactive: 0.223.

With `CC(=O)O[C@@H]1CC2C(C)(C)[C@H](O)C=C[C@]2(C)C2CC[C@@]3(C)[C@H](c4ccoc4)OC(=O)C4OC43[C@@]21C` (some centres undefined) (plate: M 17-18), the “tryptophan fluorescence intensity z-score” value is inactive: 0.166.

Consider `C=CCCCCCCCCCCCc1ccco1` (plate: M 21-22), for which the “tryptophan fluorescence intensity z-score” value was inactive: 0.0342.

In the case of `CN(C)CCOC(c1ccccc1)c1ccccc1` (plate: M 3-4), the “tryptophan fluorescence intensity z-score” value is inactive: -0.0311.

On to `CN(C)CC/C=C1/c2ccccc2Sc2ccc(Cl)cc21` (plate: M 7-8), for which the “tryptophan fluorescence intensity z-score” value was inactive: -0.0324.

Regarding `CC(=O)O[C@H]1C[C@@H](OC(C)=O)C(C)(C)[C@@H]2C[C@@H](OC(C)=O)[C@]3(C)[C@H](CC[C@@]4(C)[C@H](c5ccoc5)OC(=O)[C@H]5O[C@@]534)[C@@]12C` (plate: M 13-14), the “tryptophan fluorescence intensity z-score” value is inactive: 0.374.

For `CC(=O)[C@H]1CC[C@H]2[C@@H]3CCC4=CC(=O)CC[C@]4(C)[C@H]3CC[C@]12C` (plate: M 5-6), the “tryptophan fluorescence intensity z-score” value is inactive: -0.539.

As for `CCCN(CCC)S(=O)(=O)c1ccc(C(=O)O)cc1` (plate: M 5-6), the “tryptophan fluorescence intensity z-score” value was inactive: 0.169.

Regarding `CO/N=C(\C(=O)NC1C(=O)N2C(C(=O)O)=C(CSc3nc(=O)c(=O)[nH]n3C)CS[C@H]12)c1csc(N)n1` (some centres undefined) (plate: M 7-8), the “tryptophan fluorescence intensity z-score” value is inactive: -0.202.

Regarding `CCN(CC)C(=O)c1cccc(C)c1` (plate: M 13-14), the “tryptophan fluorescence intensity z-score” value is inactive: 0.179.

Take `C[C@]12CC[C@@H]3c4ccc(O)cc4CC[C@H]3[C@@H]1CC[C@@H]2O` (plate: M 3-4): the “tryptophan fluorescence intensity z-score” value is inactive: 0.684.

For `COc1ccc(-c2coc3c(O)c(OC)ccc3c2=O)cc1` (plate: M 15-16), the “tryptophan fluorescence intensity z-score” value was inactive: 0.151.

For the compound `CN(C)CCN(Cc1ccccc1)c1ccccn1` (plate: M 5-6), the “tryptophan fluorescence intensity z-score” value was inactive: 0.281.

Consider `C=CC1=C(C)c2cc3[nH]c(cc4nc(cc5[nH]c(cc1n2)c(C)c5CCC(=O)O)C(CCC(=O)O)=C4C)c(C)c3C=C` (plate: M 17-18), for which the “tryptophan fluorescence intensity z-score” value was inactive: -0.0461.

For `COc1ccc2c(c1)OCC(Cc1ccc(O)c(OC)c1)C2=O` (centres undefined) (plate: M 15-16), the “tryptophan fluorescence intensity z-score” value is inactive: -0.0385.

Consider `C[n+]1cc2c3c(ccc2c2ccc4cc5c(cc4c21)OCO5)OCO3` (plate: M 1-2), for which the “tryptophan fluorescence intensity z-score” value is inactive: 0.193.

For the compound `Clc1ccc(CSC(Cn2ccnc2)c2ccc(Cl)cc2Cl)cc1` (centres undefined) (plate: M 7-8), the “tryptophan fluorescence intensity z-score” value is inactive: -0.675.

As for `Nc1ncnc2c1ncn2[C@@H]1O[C@H](CO)[C@@H](O)[C@H]1O` (plate: M 1-2), the “tryptophan fluorescence intensity z-score” value was inactive: 0.0438.

Regarding `Cc1cc(=O)oc2cc(O)c(O)cc12` (plate: M 17-18), the “tryptophan fluorescence intensity z-score” value is inactive: 0.0567.

Take `N[C@@H](Cc1cc(I)c(Oc2cc(I)c(O)c(I)c2)c(I)c1)C(=O)O` (plate: M 5-6): the “tryptophan fluorescence intensity z-score” value was inactive: -0.288.

With `COc1cc(O)c(C(C)=O)c(O)c1` (plate: M 19-20), the “tryptophan fluorescence intensity z-score” value is inactive: 0.109.

Turning to `CNCc1ccccc1` (plate: M 21-22), the “tryptophan fluorescence intensity z-score” value is inactive: 0.403.

`O=C(O)CCCCCCCCCCCC[C@@H]1C=CCC1` (plate: M 17-18): the “tryptophan fluorescence intensity z-score” value was inactive: -0.237.

Regarding `COc1cc(OC)c2c(=O)c(O)c(-c3ccc(OC)c(OC)c3)oc2c1` (plate: M 17-18), the “tryptophan fluorescence intensity z-score” value was inactive: 0.0921.

`COc1cccc2c1C(=O)c1c(O)c3c(c(O)c1C2=O)C[C@@](O)(C(=O)CO)C[C@@H]3O[C@H]1C[C@H](N)[C@H](O)[C@H](C)O1` (plate: M 11-12): the “tryptophan fluorescence intensity z-score” value is inactive: -1.12.

As to `CC1(C)S[C@@H]2[C@H](NC(=O)[C@H](N)c3ccc(O)cc3)C(=O)N2[C@H]1C(=O)O` (plate: M 1-2), the “tryptophan fluorescence intensity z-score” value is inactive: -0.112.

For the compound `OCCOCCN1CCN(C2=Nc3ccccc3Sc3ccccc32)CC1` (plate: M 9-10), the “tryptophan fluorescence intensity z-score” value is inactive: -0.171.

`Cc1cc(O)c(C)c(O)c1C(=O)O` (plate: M 15-16): the “tryptophan fluorescence intensity z-score” value is inactive: 0.322.

Consider `CN[C@@H]1[C@H](O[C@H]2[C@H](O[C@H]3[C@H](O)[C@@H](O)[C@H](N=C(N)N)[C@@H](O)[C@@H]3N=C(N)N)O[C@@H](C)[C@]2(O)C=O)O[C@@H](CO)[C@H](O)[C@H]1O` (plate: M 5-6), for which the “tryptophan fluorescence intensity z-score” value was inactive: 0.0615.

`N=C(N)NC(=N)Nc1ccccc1` (plate: M 23-24): the “tryptophan fluorescence intensity z-score” value was inactive: 0.653.

Consider `COc1ccc2oc(-c3ccccc3OC)cc(=O)c2c1` (plate: M 23-24), for which the “tryptophan fluorescence intensity z-score” value was inactive: -0.205.

With `Fc1ccc(C(c2ccc(F)cc2)N2CCN(C/C=C/c3ccccc3)CC2)cc1` (plate: M 7-8), the “tryptophan fluorescence intensity z-score” value was inactive: 0.0504.

On to `CCCCC(=O)O[C@H]1CC[C@H]2[C@@H]3CCc4cc(O)ccc4[C@H]3CC[C@]12C` (plate: M 3-4), for which the “tryptophan fluorescence intensity z-score” value was inactive: 0.182.

For the compound `CN(N=O)C(=O)N[C@H]1C(O)O[C@H](CO)[C@@H](O)[C@@H]1O` (mixture of isomers) (plate: M 5-6), the “tryptophan fluorescence intensity z-score” value was inactive: -0.0197.

Regarding `c1ccc2c(Cc3c[nH]c4ccccc34)c[nH]c2c1` (plate: M 23-24), the “tryptophan fluorescence intensity z-score” value was inactive: 0.236.

On to `CO/N=C(\C(=O)N[C@@H]1C(=O)N2C(C(=O)OCOC(=O)C(C)(C)C)=C(/C=C\c3scnc3C)CS[C@H]12)c1csc(N)n1` (plate: M 11-12), for which the “tryptophan fluorescence intensity z-score” value is inactive: -0.885.

For the compound `CC1=C(CCC(=O)O)c2cc3[nH]c(cc4nc(cc5[nH]c(cc1n2)c(C)c5C(C)O)C(C)=C4C(C)O)c(C)c3CCC(=O)O` (centres undefined) (plate: M 17-18), the “tryptophan fluorescence intensity z-score” value was inactive: -0.726.

Turning to `COc1ccc(CCN(C)CCCC(C#N)(c2ccc(OC)c(OC)c2)C(C)C)cc1OC` (centres undefined) (plate: M 13-14), the “tryptophan fluorescence intensity z-score” value was inactive: 1.18.

With `CCCc1cc(=O)[nH]c(=S)[nH]1` (plate: M 5-6), the “tryptophan fluorescence intensity z-score” value is inactive: 0.305.

Turning to `C[C@]12CCC(=O)C=C1CC[C@@H]1[C@@H]2[C@@H](O)C[C@@]2(C)[C@H]1CC[C@]2(O)C(=O)CO` (plate: M 1-2), the “tryptophan fluorescence intensity z-score” value is inactive: 0.552.

With `CC1(C)C(=O)C=C[C@]2(C)[C@H]3CC[C@@]4(C)[C@H](c5ccoc5)OC(=O)[C@H]5O[C@]54[C@]3(C)C(=O)C[C@@H]12` (plate: M 13-14), the “tryptophan fluorescence intensity z-score” value was inactive: 0.373.

On to `Oc1ncnc2[nH]ncc12` (plate: M 1-2), for which the “tryptophan fluorescence intensity z-score” value is inactive: 0.331.

In the case of `COc1ccc2c(c1)OC/C(=C\c1ccc(OC)c(O)c1)C2=O` (plate: M 15-16), the “tryptophan fluorescence intensity z-score” value was inactive: -0.078.

Consider `C[C@]1(OC(=O)/C=C/c2ccccc2)C[C@@H](O)[C@]2(O)C=CO[C@@H](O[C@@H]3O[C@H](CO)[C@@H](O)[C@H](O)[C@H]3O)[C@@H]21` (plate: M 19-20), for which the “tryptophan fluorescence intensity z-score” value was inactive: 0.641.

(Values after the supplement of paper PMC9578143, “Small-Molecule Ebselen Binds to YTHDF Proteins Interfering with the Recognition of N^6-Methyladenosine-Modified RNAs” (ACS Pharmacology & Translational Science, 2022).)
